## Library screening results

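Assay on Mycobacterium tuberculosis, filed only as a heat shock assay from Cornell; the read-out is not stated. The concentration is filed as 10 mM, unlikely as a test dose, so the dose is not known. The record gives no direction; compounds that gave an IC50 in retests scored well above the rest, so higher reads as stronger inhibition. Size under these conditions: about 69,000 compounds, about 930 of them at 50% or above in at least one test.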

Values are the deposited “Percent Effect”, in %. The record does not define 0% and 100%; most values in the screen are far below 50% and negative numbers occur (in some assays of this library far below -100). Compounds were drawn at random from those tested, without regard to their results.

- O=C(O)C(F)(F)F.O=C(c1cscn1)N1CC[C@]2(C[C@@H](OCCN3CCCC3)CO2)C1 | 0.0126%
- Cc1nn(C)c(C)c1C1CCCN1CC(=O)Nc1ccncc1 (centres undefined) | 7.77%
- CC(C)NC1CCCc2nc(-c3ccccc3)ncc21 (centres undefined) | -4.341%
- CC(=O)c1ccc(CNC(=O)c2cc(C)nn2C)nc1C | -2.326%
- CCCNC(=O)c1nn(CC)cc1Cl | 5.738%
- Cc1nn(CC(C)C)c(C)c1CC(=O)N1CCCC(NS(C)(=O)=O)C1 (centres undefined) | 18.05%
- CN1CCOC(C)(C(=O)N2CCSCC2)C1 (centres undefined) | -33.18%
- O=C(NCCNC1CCN(c2nccs2)CC1)c1cccs1 | -4.293%
- Cn1ccnc1CN1CCC2(CC1)CCN(c1ccccc1)C2=O.O=C(O)C(F)(F)F | 8.178%
- Cc1ccc(S(=O)(=O)N2CCOCC2C#N)c(F)c1 (centres undefined) | -13.49%
- CCNc1cc2c(nn1)CCN(C(=O)c1ccoc1)C2 | -4.755%
- COCCN(C)C[C@@H]1CN(c2cc(C)nc3ccccc23)C[C@@H]1CO | -24.9%
- Cc1cnn(C2CCCN(C(=O)c3sccc3C#N)C2)c1 (centres undefined) | 11.75%
- [H][C@@]1([C@H](C)C(=O)O)CCc2c(C)cc(OCCC)c(C)c2C1 | -20.56%
- Cc1cccc(CN(Cn2nc(C)c3c(C)onc3c2=O)C2CC2)c1 | 5.391%
- [H][C@@]12COC[C@@H](CC(=O)N3CCCC3)[C@]1([H])CN(Cc1ccncc1)C2 | 1.572%
- O=C(CN(Cc1cccs1)C1CCS(=O)(=O)C1)NCC1CCCCC1 (centres undefined) | -4.26%
- CC[C@@H]1N(Cc2ccc(OC)cc2)CCC[C@]12CCC(=O)N2CCOC.O=C(O)C(F)(F)F | -28.15%
- Cc1ccc(N2Cc3cnn(Cc4ccc(F)cc4)c3C2)nn1 | -33.52%
- COc1ccccc1CCNC(=O)CNCC1CN(C)CCO1 (centres undefined) | 3.075%
- COc1ccc(F)cc1C[S+]([O-])CC(=O)NCC(C)C (centres undefined) | -8.49%
- CCCc1nc(N2CCCCCC2)c2c(n1)c(C)nn2CC | 50.35%
- CC1CCN(CC(O)CNc2ccc(Cl)cn2)CC1 (centres undefined) | 17.56%
- Cc1cn2c(=O)c(-c3ccnc(N[C@@H](C)CO)n3)cnc2s1 | -8.394%
- COCC(NC(=O)NCc1cccc(C#N)c1)c1ccco1 (centres undefined) | -39.18%
- CCn1nc(C)c2c1cnn2CCNS(=O)(=O)c1cccs1 | 6.5%

2 of the entries, repeated:

- Cc1nn(C)c(C)c1C1CCCN1CC(=O)Nc1ccncc1 (centres undefined) : 7.77%
- CN1CCOC(C)(C(=O)N2CCSCC2)C1 (centres undefined) : -33.18%

The values are deposited in ChEMBL (CHEMBL3988442, “University of Dundee, Small-Polar-MMV Screening Library” (2021)).